This data set concerns the target PARP-1 (Homo sapiens) (UniProt P09874). Description: fluorescence anisotropy. Conditions: 140 mM KCl, 25 mM HEPES pH 8.0, 140 mM KCl, 8 mM MgCl2, 50 ug/ml BSA, 0.02 mM TCEP, 4% glycerol, 11.4 mM bME, 5 nM labeled DNA, 30 min room temperature, read at 25 C, recombinant protein, residues 1-1014, protein details: His-tag (pET28a). A general note: In fluorescence polarisation assays a small probe gives low polarisation when free and higher when bound to something large.

The chains behind the UniProt entries cited, without tags or fusion partners.
UniProt P09874, whole entry: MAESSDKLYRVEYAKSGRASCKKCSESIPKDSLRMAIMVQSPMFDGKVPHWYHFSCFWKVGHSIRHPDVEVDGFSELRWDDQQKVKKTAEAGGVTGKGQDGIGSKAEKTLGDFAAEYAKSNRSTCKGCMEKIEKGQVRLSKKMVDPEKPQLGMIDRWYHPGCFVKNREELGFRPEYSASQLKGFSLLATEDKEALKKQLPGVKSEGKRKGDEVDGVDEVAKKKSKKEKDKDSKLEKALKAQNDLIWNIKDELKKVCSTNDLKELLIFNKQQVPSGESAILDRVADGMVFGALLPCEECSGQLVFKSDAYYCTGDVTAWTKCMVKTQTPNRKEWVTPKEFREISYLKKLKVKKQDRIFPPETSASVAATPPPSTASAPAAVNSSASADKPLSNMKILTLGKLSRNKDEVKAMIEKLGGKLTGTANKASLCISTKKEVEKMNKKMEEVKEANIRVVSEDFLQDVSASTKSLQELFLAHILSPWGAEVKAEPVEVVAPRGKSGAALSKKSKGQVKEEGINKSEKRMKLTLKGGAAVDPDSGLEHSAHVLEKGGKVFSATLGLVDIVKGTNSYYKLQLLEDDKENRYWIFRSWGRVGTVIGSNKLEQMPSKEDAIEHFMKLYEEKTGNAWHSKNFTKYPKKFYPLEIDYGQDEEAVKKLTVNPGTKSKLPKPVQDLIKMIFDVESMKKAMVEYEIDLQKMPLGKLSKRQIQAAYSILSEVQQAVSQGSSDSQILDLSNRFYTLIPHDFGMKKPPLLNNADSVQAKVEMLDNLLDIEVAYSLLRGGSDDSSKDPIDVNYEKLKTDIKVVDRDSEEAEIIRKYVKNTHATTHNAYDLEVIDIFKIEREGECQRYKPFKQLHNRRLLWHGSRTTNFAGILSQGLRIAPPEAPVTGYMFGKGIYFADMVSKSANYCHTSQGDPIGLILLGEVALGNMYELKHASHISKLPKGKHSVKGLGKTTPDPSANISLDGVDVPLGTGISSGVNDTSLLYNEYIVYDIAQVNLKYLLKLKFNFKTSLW

Setting [1] is: 8 mM MgCl2, Kd in figure only, folded or branched DNA.

The results in this text go back to PMC7797039.

No signal at the amounts used counts as a negative. Construct, isoform or probe ends are uncertain for at least one entry. At least one verdict rests on a figure or table, not on a statement of the authors.

As for AGGGTTAGGGTTAGGGTTAGGG [hTEL G4DNA], the binding result (8 mM MgCl2, little or no binding, folded or branched DNA) is on record as “no binding”. As for GGGCGCGAGGGCGGGAGGGGAGG [c-KIT L2-L1], the binding result under setting [1] is “binds”. The same measure, in the same setting: the result for “GGGCGGGAAAAAGGGAGGGGAGG [c-KIT L2 5-ade]” reads “binds”; that for GGGCGGGAGGGCGCGAGGGGAGG [c-KIT L2-L3], “binds”. In the case of “GGGCGGGTTTTTGGGAGGGGAGG [c-KIT L2 5-thy]”, the binding result under setting [1] is “binds”.

On to TTTTTTTTTTTTTTTTTTTT [T20], for which the binding result (8 mM MgCl2, little or no binding, single-stranded DNA) is “no binding”.
